# Results reported in article PMC9688820.
# Amino acid sequences for entries named in this document (tags omitted).
# UniProt P36404: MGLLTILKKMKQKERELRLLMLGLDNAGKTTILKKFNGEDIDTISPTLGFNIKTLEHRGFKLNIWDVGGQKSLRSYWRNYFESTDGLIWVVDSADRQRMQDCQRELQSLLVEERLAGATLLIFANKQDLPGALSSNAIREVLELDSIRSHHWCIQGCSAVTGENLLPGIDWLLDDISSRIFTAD
# Molecular target: T1, HSV-1 UL43 protein, FLAG-tagged wild type (UL43-WT-FLAG) (herpes simplex virus 1 (HSV-1)) (UniProt P10227)
# T1 sequence: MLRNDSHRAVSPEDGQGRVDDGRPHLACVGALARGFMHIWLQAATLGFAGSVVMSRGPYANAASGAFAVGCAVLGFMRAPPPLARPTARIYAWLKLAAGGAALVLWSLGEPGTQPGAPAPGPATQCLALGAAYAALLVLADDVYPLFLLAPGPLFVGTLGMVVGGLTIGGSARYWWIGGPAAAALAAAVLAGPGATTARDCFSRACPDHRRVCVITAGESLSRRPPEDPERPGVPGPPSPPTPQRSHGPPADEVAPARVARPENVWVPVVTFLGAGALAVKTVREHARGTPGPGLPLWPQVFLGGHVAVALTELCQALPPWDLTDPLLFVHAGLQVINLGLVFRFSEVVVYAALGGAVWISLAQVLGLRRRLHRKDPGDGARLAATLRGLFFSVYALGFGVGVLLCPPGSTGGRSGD
# Experiment: affinity purification with mass spectrometry; differing bands of the SDS-PAGE gels cut out, digested with trypsin, MALDI-TOF-MS
substance,measurement,value
ARF-like 2 (ARL2) GTPase (from UniProt P36404 1-184),binding,binds

# These are yes or no findings as the source states them, for the method shown. In cells and extracts the contact can be indirect. A yes stands for co-enrichment or nearness to the bait. Other partners may have been found. Where a sequence is shown, tags or fusion partners need not be part of it.
